Measured values as given in PMC5435352.

B1: Interleukin enhancer binding factor 3 (protein, UniProt Q12906 1-894)
chain: MRPMRIFVNDDRHVMAKHSSVYPTQEELEAVQNMVSHTERALKAVSDWIDEQEKGSSEQAESDNMDVPPEDDSKEGAGEQKTEHMTRTLRGVMRVGLVAKGLLLKGDLDLELVLLCKEKPTTALLDKVADNLAIQLAAVTEDKYEILQSVDDAAIVIKNTKEPPLSLTIHLTSPVVREEMEKVLAGETLSVNDPPDVLDRQKCLAALASLRHAKWFQARANGLKSCVIVIRVLRDLCTRVPTWGPLRGWPLELLCEKSIGTANRPMGAGEALRRVLECLASGIVMPDGSGIYDPCEKEATDAIGHLDRQQREDITQSAQHALRLAAFGQLHKVLGMDPLPSKMPKKPKNENPVDYTVQIPPSTTYAITPMKRPMEEDGEEKSPSKKKKKIQKKEEKAEPPQAMNALMRLNQLKPGLQYKLVSQTGPVHAPIFTMSVEVDGNSFEASGPSKKTAKLHVAVKVLQDMGLPTGAEGRDSSKGEDSAEETEAKPAVVAPAPVVEAVSTPSAAFPSDATAEQGPILTKHGKNPVMELNEKRRGLKYELISETGGSHDKRFVMEVEVDGQKFQGAGSNKKVAKAYAALAALEKLFPDTPLALDANKKKRAPVPVRGGPKFAAKPHNPGFGMGGPMHNEVPPPPNLRGRGRGGSIRGRGRGRGFGGANHGGYMNAGAGYGSYGYGGNSATAGYSQFYSNGGHSGNASGGGGGGGGGSSGYGSYYQGDNYNSPVPPKHAGKKQPHGGQQKPSYGSGYQSHQGQQQSYNQSPYSNYGPPQGKQKGYNHGQGSYSYSNSYNSPGGGGGSDYNYESKFNYSGSGGRSGGNSYGSGGASYNPGSHGGYGGGSGGGSSYQGKQGGYSQSNYNSPGSGQNYSGPPSSYQSSQGGYGRNADHSMNYQYR
B2: Lamina-associated polypeptide 2, isoform alpha (protein, UniProt P42166 1-694)
chain: MPEFLEDPSVLTKDKLKSELVANNVTLPAGEQRKDVYVQLYLQHLTARNRPPLPAGTNSKGPPDFSSDEEREPTPVLGSGAAAAGRSRAAVGRKATKKTDKPRQEDKDDLDVTELTNEDLLDQLVKYGVNPGPIVGTTRKLYEKKLLKLREQGTESRSSTPLPTISSSAENTRQNGSNDSDRYSDNEEGKKKEHKKVKSTRDIVPFSELGTTPSGGGFFQGISFPEISTRPPLGSTELQAAKKVHTSKGDLPREPLVATNLPGRGQLQKLASERNLFISCKSSHDRCLEKSSSSSSQPEHSAMLVSTAASPSLIKETTTGYYKDIVENICGREKSGIQPLCPERSHISDQSPLSSKRKALEESESSQLISPPLAQAIRDYVNSLLVQGGVGSLPGTSNSMPPLDVENIQKRIDQSKFQETEFLSPPRKVPRLSEKSVEERDSGSFVAFQNIPGSELMSSFAKTVVSHSLTTLGLEVAKQSQHDKIDASELSFPFHESILKVIEEEWQQVDRQLPSLACKYPVSSREATQILSVPKVDDEILGFISEATPLGGIQAASTESCNQQLDLALCRAYEAAASALQIATHTAFVAKAMQADISQAAQILSSDPSRTHQALGILSKTYDAASYICEAAFDEVKMAAHTMGNATVGRRYLWLKDCKINLASKNKLASTPFKGGTLFGGEVCKVIKKRGNKH

Biological target: EVA71 3D viral polymerase (enterovirus A71 (strain 4643/TW/98))
Assay: affinity purification with mass spectrometry; […]; 50 mM Tris-HCl pH 7.4, 150 mM NaCl, 1% Triton X-100), […]

Row | Binder | binding
1 | B1 | binds
2 | B2 | binds

No constants are given. Whether binding was seen depends on the method and setting. In cells and extracts the contact can be indirect. These calls come from enrichment with a bait or labelling near it, and not all partners need be listed.
